Measured values: patent US6342511B1, “Phencyclidine derivatives, preparation method and pharmaceutical compositions containing same” (Societe de Conseils de Recherches et d'Applications …, priority 1977, dated 2002)

Key:
[1] = tested on: PCP2 sites; assay: [3H]TCP displacement, cerebellum membranes, 2-site model, PCP2; format: binding, rat; settings: relative proportion of PCP2 sites in two-site fit
Experimental: (§1) The affinity of the compounds for their potential bond site, can be evaluated by quantifying their ability to displace a specific tritiated label of a given site. The bond experiences are carried out by competition between the molecule to be tested and the appropriate radioligand on a membrane preparation rich in sites to be studied. The concentration of the derivative tested which inhibits 50% of the bond of the radioligand to the receptor is called IC50.
(§2) For the experimental conditions and membrane preparation techniques used, reference can be made to the literature (Brain Res., 378, 133-141 (1986); Eur. J. Pharm., 81, 531-542 (1982)).
(§3) For low affinity sites, the monosite treatment used led to incoherent results. The experimental data have therefore been reprocessed using non-linear regression (Marquardt-Levenberg algorithm) with Sigma Plot software (Jandel) according to a model with two noted sites of interaction PCP2 and PCP3. This processing proves to be more suitable than a monosite treatment (Student test: p<0.05) over a set of 3 to 4 experiments for each compound tested. Over all the experiments, the two site populations are found in a relative proportion to 68.0% (±1.5) for the PCP2 sites and 31.2% (±1.5) for the PCP3 sites.
(§4) For the PCP2 and PCP3 sites, the preparation originates from rat cerebella. Not having a specific label, only [^3H]TCP can be used. A more significant concentration of tritiated ligand (2.5 nM versus 1 nM in the cortex) is used to ensure that all the PCP2 and PCP3 sites are occupied.

[2] = tested on: PCP3 sites; assay: [3H]TCP displacement, cerebellum membranes, 2-site model, PCP3; format: binding, rat; settings: relative proportion of PCP3 sites in two-site fit
Experimental: as §1, §2, §3, §4

Structure (SMILES) | cerebellum 2 sites PCP2 (%) [1] [%] | cerebellum 2 sites PCP3 (%) [2] [%]
CC1CCCN(C2(c3cccs3)CCSCC2)C1 (racemic) [Ex 2, (±)-N-[4-(2-thienyl)-tetrahydro-4H-thiopyran-4-yl]-3-methyl-piperidine] | 69.1 | 31.6
CC1CCCN(C2(c3cc4ccccc4s3)CCSCC2)C1 (racemic) [Ex 5, (±)-N-[4-(2-benzothiophenyl)-tetrahydro-4H-thiopyran-4-yl]-3-methyl-piperidine] | 66.2 | 32.2
CC1CCCN(C2(c3cccs3)CCCCC2)C1 (racemic) [Ex 22 (±), N-[1-(2-thienyl)-cyclohexan-1-yl]-3-methyl piperidine] | 68.5 | 33.7
CC1CSCCC1(c1cccs1)N1CCCCC1 (single isomer, unassigned) [Ex 1 (minority), N-[4-(2-thienyl)-3-methyl-tetrahydro-4H-thiopyran-4-yl] piperidine] | 62.8 | 34.7
CC1CCCN(C2(c3cccs3)CCCCC2)C1 (single isomer, unassigned) [Ex 22 (+), N-[1-(2-thienyl)-cyclohexan-1-yl]-3-methyl piperidine] | 52.5 | 51.0
C[C@@H]1CCCN(C2(c3cccs3)CCSCC2)C1 [Ex 4, R-(+)-N-[4-(2-thienyl)-tetrahydro-4H-thiopyran-4-yl]-3-methyl-piperidine] | 66.3 | 34.6
C[C@@H]1CCCN(C2(c3cc4ccccc4s3)CCSCC2)C1 [Ex 6, R-(+)-N-[4-(2-benzothiophenyl)-tetrahydro-4H-thiopyran-4-yl]-3-methyl-piperidine] | 55.6 | 39.4
C[C@H]1CCCN(C2(c3cc4ccccc4s3)CCSCC2)C1 [Ex 7, S-(−)-N-[4-(2-benzothiophenyl)-tetrahydro-4H-thiopyran-4-yl]-3-methyl-piperidine] | 57.8 | 40.7
OCC1CCCN(C2(c3cccs3)CCCCC2)C1 (centres unmarked) [Ex 8, N-[1-(2-thienyl)-cyclohexan-1-yl]-3-hydroxymethyl-piperidine] | 69 | 31
c1coc(C2(N3CCCCC3)CCSCC2)c1 [Ex 9, N-[4-(2-furyl)-tetrahydro-4H-thiopyran-4-yl]-piperidine] | 68.3 | 32.3
c1ccc2oc(C3(N4CCCCC4)CCSCC3)cc2c1 [Ex 10, N-[4-(2-benzofuryl)-tetrahydro-4H-thiopyran-4-yl]-piperidine] | 65.0 | 33.4
Cc1ccc(C2(N3CCCCC3)CCSCC2)s1 [Ex 11, N-[4-(5-methyl-thiophen-2-yl)-tetrahydro-4H-thiopyran-4-yl]-piperidine] | 83 | 15.3
Cc1csc(C2(N3CCCCC3)CCSCC2)c1 [Ex 12, N-[4-(4-methyl-thiophen-2-yl)-tetrahydro-4H-thiopyran-4-yl]-piperidine] | 76.4 | 21.8
CCNC1(c2cccs2)CCCCC1 [Ex 17, N-ethyl-1-(2-thienyl)-cyclohexylamine] | 56.6 | 44.6
c1coc(C2(N3CCCCC3)CCCCC2)c1 [Ex 18, N-[1-(2-furyl)-cyclohexan-1-yl] piperidine] | 66.3 | 30.7
c1csc(C2(N3CCCCC3)CCSCC2)c1 [Ex 19, N-[4-(2-thienyl)-tetrahydro-4H-thiopyran-4-yl] piperidine] | 75.2 | 25.2
c1csc(C2(N3CCCCC3)CCOCC2)c1 [Ex 20, N-[4-(2-thienyl)-tetrahydro-4H-pyran-4-yl] piperidine] | 80.3 | 15.5
c1csc(C2(N3CCCCC3)CCCSC2)c1 (centres unmarked) [Ex 21, N-[3-(2-thienyl)-tetrahydro-4H-thiopyran-3-yl] piperidine] | 77.8 | 23.4
c1csc(C2(N3CCCCC3)CCCCC2)c1 [TCP, N-(1-(2-thienyl)cyclohexyl)piperidine, reference compound] | 72.6 | 29.8
